In ChEMBL document CHEMBL1125308, “Conformational analysis of the aromatase inhibitor 3-ethyl-3-(4-pyridyl)piperidine-2,6-dione (rogletimide) and discovery of potent 5-alkyl derivatives” (J Med Chem, 1992) one finds IC50 data, which are given here for one compound.

The target in this assay is T1, Aromatase (Homo sapiens, UniProt P11511).
T1 sequence (P11511 whole entry): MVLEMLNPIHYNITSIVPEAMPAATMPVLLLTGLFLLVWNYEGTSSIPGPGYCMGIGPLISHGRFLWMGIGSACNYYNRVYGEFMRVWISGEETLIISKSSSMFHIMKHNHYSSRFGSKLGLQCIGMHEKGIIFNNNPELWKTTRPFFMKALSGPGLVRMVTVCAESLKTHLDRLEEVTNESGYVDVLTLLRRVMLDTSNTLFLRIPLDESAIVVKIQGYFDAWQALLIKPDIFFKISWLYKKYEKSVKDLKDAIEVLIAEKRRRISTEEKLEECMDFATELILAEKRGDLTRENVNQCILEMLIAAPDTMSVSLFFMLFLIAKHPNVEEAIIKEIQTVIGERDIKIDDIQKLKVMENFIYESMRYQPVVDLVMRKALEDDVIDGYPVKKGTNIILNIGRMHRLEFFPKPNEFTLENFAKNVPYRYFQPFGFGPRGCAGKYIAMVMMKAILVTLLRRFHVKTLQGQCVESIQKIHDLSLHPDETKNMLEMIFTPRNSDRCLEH

As a reminder, the IC50 is the concentration at which inhibition is half-maximal. A lower IC50 goes with higher potency.

With `CC[C@]1(c2ccncc2)CC(C)(C)C(=O)NC1=O`, the IC50 was over 200 µM.
